Results deposited as PubChem BioAssay AID1259308 (NCATS, 2017)
Assay: 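Genes whose loss raises luciferase production in HEK293 cells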 (primary screen). Cell system: human HEK293 embryonic kidney cells stably expressing firefly luciferase (HEK-CMV-Luc2-Hygro). Knock-down reagent: single siRNA against human genes, 0.8 pmol siRNA per well. Timing: 72 h. Read-out: 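Luciferase light (ONE-Glo) measured on one replicate plate set and viability (CellTiter-Glo) on the other, scaled to a negative control siRNA, with robust z-scores and luciferase per cell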. Direction: total luciferase, z-score and total luciferase, % of control: higher = more reporter protein produced; luciferase per cell, z-score: higher = more reporter output per viable cell. Rule for the call: 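Active when the median/MAD z-score for overall luciferase is greater than 3; a gene was taken forward for validation with new siRNAs if at least two of its three siRNAs passed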. Meaning of the calls: active = raised luciferase; inactive = no rise.
This is an unselected part of about 59,000 reagents tested. About 1,510 of them (2.6%) were called active. 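Calls use total luciferase alone and ignore viability, so some active siRNAs may act by altering cell number.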 The numbers tell different reagents against one gene apart. Not all columns of the deposit are shown.

no.	target gene	reagent no.	total luciferase, z-score	total luciferase, % of control	luciferase per cell, z-score	call
1	TAOK1	1	0.609	94	0.521	inactive
2	TAOK1	2	-0.0666	80.6	-0.104	inactive
3	TAOK1	3	-0.525	71.5	-0.621	inactive
4	IGFBP4	1	0.76	97	0.948	inactive
5	IGFBP4	2	2.01	122	1.28	inactive
6	IGFBP4	3	-0.27	76.5	-1.12	inactive
7	OR52W1	1	1	102	1.32	inactive
8	OR52W1	2	1.79	118	1.7	inactive
9	OR52W1	3	1.35	109	1.3	inactive
10	MROH8	1	0.555	92.9	0.127	inactive
11	MROH8	2	0.603	93.9	0.191	inactive
12	MROH8	3	-2.07	40.7	-0.315	inactive
13	GLRA1	1	-0.957	62.9	-0.836	inactive
14	GLRA1	2	-1.14	59.2	-0.134	inactive
15	GLRA1	3	-0.578	70.4	-0.74	inactive

Reformatted: entries from further up.
target gene | reagent no. | total luciferase, z-score | total luciferase, % of control | luciferase per cell, z-score | call
TAOK1 | 1 | 0.609 | 94 | 0.521 | inactive
TAOK1 | 2 | -0.0666 | 80.6 | -0.104 | inactive

The listing continues.
no.	target gene	reagent no.	total luciferase, z-score	total luciferase, % of control	luciferase per cell, z-score	call
16	CEBPE	1	-0.502	71.9	-0.665	inactive
17	CEBPE	2	0.355	89	-0.137	inactive
18	CEBPE	3	-0.369	74.5	-0.0292	inactive
19	PRSS1	1	0.0964	83.8	-0.208	inactive
20	PRSS1	2	0.277	87.4	1.39	inactive
21	PRSS1	3	1.33	108	0.271	inactive
22	SLC12A2	1	0.85	98.8	0.521	inactive
23	SLC12A2	2	-0.554	70.9	-0.965	inactive
24	SLC12A2	3	0.321	88.3	0.376	inactive
